Binding data for one molecule are collected here from CN105085679A.

The target of the assay is T1, RANKL(全长RANKL) on transfected 293 cells (UniProt O14788).
T1 sequence (looked up): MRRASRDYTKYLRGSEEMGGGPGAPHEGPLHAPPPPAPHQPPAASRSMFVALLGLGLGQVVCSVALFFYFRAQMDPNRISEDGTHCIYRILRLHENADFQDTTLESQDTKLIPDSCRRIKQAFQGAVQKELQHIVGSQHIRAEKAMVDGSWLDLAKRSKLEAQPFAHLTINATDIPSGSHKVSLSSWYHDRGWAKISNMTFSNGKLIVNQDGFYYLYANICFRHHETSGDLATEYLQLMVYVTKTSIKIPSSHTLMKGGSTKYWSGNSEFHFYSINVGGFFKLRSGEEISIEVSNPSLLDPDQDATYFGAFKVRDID
The assay is described as follows: flow cytometry on 293 cells transfected with full-length RANKL.

These are yes or no findings as the source states them, for the method shown. Some results given as binding are weak or reduced against the parent protein; the word gives no strength.

B1: 全人源抗RANKL抗体 BA05-2 (antibody, human IgG4 S228P, kappa, V domains shown)
VH: QVQLVESGGGLVKPGGSLRLSCAASGFTFSSYGMSWIRQAPGKGLEWVSGITGSGSSTYYADSAKGRFTISRDNAKNSLYLQMNSLRAEDTAVYYCARDPGTTVIMSWFDPWGQGTLVTVSS
VL: EIVMTQSPATLSLSPGERATLSCRASQSLRGRYLAWYQQKPGKAPKLLIYGASTRATGIPARFSGSGSGTDFTLTISSLQPEDFAVYYCQQYASSPRTFGQGTKVEIKR
Take B1: the binding entry is on record as “binds”.
